This note sets out measurements from publication PMC5366859.

These are yes or no findings as the source states them, for the method shown. Binding can be weak; no strength is given. For part of these data: Where a sequence is shown, tags or fusion partners need not be part of it. For part of these data: Binding seen in cells or lysates may run through a third protein.

Test [1] addresses T1, A. thaliana TIMING OF CAB EXPRESSION1 (AtTOC1), yeast two-hybrid bait (A. thaliana) (UniProt Q9LKL2).
T1 sequence: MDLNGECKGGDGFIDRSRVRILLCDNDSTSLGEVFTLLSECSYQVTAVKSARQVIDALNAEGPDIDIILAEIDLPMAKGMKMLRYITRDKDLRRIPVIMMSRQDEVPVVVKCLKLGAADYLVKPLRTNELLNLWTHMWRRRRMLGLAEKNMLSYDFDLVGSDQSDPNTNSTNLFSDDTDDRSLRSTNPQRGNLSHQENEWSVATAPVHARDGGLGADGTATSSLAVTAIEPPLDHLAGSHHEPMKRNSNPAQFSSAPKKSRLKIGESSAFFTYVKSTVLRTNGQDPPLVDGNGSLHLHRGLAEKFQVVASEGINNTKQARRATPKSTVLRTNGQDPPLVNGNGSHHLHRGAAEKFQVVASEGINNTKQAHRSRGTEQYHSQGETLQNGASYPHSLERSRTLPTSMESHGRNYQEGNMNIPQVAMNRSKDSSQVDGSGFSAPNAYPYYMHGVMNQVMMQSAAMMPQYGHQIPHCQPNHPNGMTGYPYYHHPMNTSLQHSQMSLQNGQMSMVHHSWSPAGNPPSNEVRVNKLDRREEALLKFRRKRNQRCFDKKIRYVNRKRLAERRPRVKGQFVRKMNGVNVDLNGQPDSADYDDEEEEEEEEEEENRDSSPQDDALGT
Nature of the test: two-hybrid; yeast; AtTOC1 or AaTOC1 as bait (pGBKT7-BD), AtCHE or AaCHE as prey (pGADT7-AD); quadruple dropout medium with X-α-gal (QDO/X) and quantitative α-galactosidase (PNG) assay relative to p53-T.

Test [2] deals with A. arenosa CCA1 HIKING EXPEDITION (AaCHE), yeast two-hybrid bait (Arabidopsis arenosa). Nature of the test: two-hybrid; yeast; AtCHE or AaCHE as bait (pGBKT7-BD, Y2H gold), AtHD1 or AaHD1 as prey (pGADT7-AD, Y187), mated; limited growth in the triple dropout media.
Test [3] deals with NGFP:AaCHE (Arabidopsis arenosa). Nature of the test: split reporter; split GFP complementation in E. coli Rossetta2 (DE3): NGFP:CHE (T7 promoter, IPTG) co-expressed with HD1:CGFP (PBAD promoter, arabinose); GFP fluorescence microscopy and flow cytometry (FACSCalibur, ~10,000 events), 20 °C for 2 days.

Regarding “A. arenosa CCA1 HIKING EXPEDITION (AaCHE), yeast two-hybrid prey (Arabidopsis arenosa)”, in test [1], the binding entry is recorded as “binds”.

B1: A. thaliana HISTONE …1 (AtHD1), yeast two-hybrid prey (protein, UniProt O22446 1-501)
chain: MDTGGNSLASGPDGVKRKVCYFYDPEVGNYYYGQGHPMKPHRIRMTHALLAHYGLLQHMQVLKPFPARDRDLCRFHADDYVSFLRSITPETQQDQIRQLKRFNVGEDCPVFDGLYSFCQTYAGGSVGGSVKLNHGLCDIAINWAGGLHHAKKCEASGFCYVNDIVLAILELLKQHERVLYVDIDIHHGDGVEEAFYATDRVMTVSFHKFGDYFPGTGHIQDIGYGSGKYYSLNVPLDDGIDDESYHLLFKPIMGKVMEIFRPGAVVLQCGADSLSGDRLGCFNLSIKGHAECVKFMRSFNVPLLLLGGGGYTIRNVARCWCYETGVALGVEVEDKMPEHEYYEYFGPDYTLHVAPSNMENKNSRQMLEEIRNDLLHNLSKLQHAPSVPFQERPPDTETPEVDEDQEDGDKRWDPDSDMDVDDDRKPIPSRVKREAVEPDTKDKDGLKGIMERGKGCEVEVDESGSTKVTGVNPVGVEEASVKMEEEGTNKGGAEQAFPPKT
With B1, the binding entry in test [2] is “binds weakly”.

B2: AtHD1:CGFP (protein, UniProt O22446 1-501)
chain: MDTGGNSLASGPDGVKRKVCYFYDPEVGNYYYGQGHPMKPHRIRMTHALLAHYGLLQHMQVLKPFPARDRDLCRFHADDYVSFLRSITPETQQDQIRQLKRFNVGEDCPVFDGLYSFCQTYAGGSVGGSVKLNHGLCDIAINWAGGLHHAKKCEASGFCYVNDIVLAILELLKQHERVLYVDIDIHHGDGVEEAFYATDRVMTVSFHKFGDYFPGTGHIQDIGYGSGKYYSLNVPLDDGIDDESYHLLFKPIMGKVMEIFRPGAVVLQCGADSLSGDRLGCFNLSIKGHAECVKFMRSFNVPLLLLGGGGYTIRNVARCWCYETGVALGVEVEDKMPEHEYYEYFGPDYTLHVAPSNMENKNSRQMLEEIRNDLLHNLSKLQHAPSVPFQERPPDTETPEVDEDQEDGDKRWDPDSDMDVDDDRKPIPSRVKREAVEPDTKDKDGLKGIMERGKGCEVEVDESGSTKVTGVNPVGVEEASVKMEEEGTNKGGAEQAFPPKT
Turning to B2, the binding result in test [3] is “binds”.
